Test results taken from patent publication US9517222B2, “Method for the treatment of senile dementia of the Alzheimer's type” (Phenomenome Discoveries Inc., priority 2007, dated 2016).
A unit is not stated for every read-out.

Columns and labels:
[1] = Serum ethanolamine phospholipid levels in human cohorts (dementia severity, post-mortem pathology, age) by flow-injection MS/MS
[2] = Serum ethanolamine phospholipid ratios to PtdEt 16:0/18:0 (M01) in human cohorts
[3] = serum, females, post mortem SDAT
[4] = serum, females, post mortem control

With `CCCCC/C=C\C/C=C\C/C=C\C/C=C\CCCC(=O)OC(CO/C=C\CCCCCCCCCCCCCCCC)COP(=O)(O)OCCN` (centres unmarked) [Metabolite M22, Plasmenyl 18:0/20:4] the “Ratio of serum levels” value ([1]; AD, All to CN, Male) was 0.708, the “Ratio of serum levels” value ([1]; ADAS 5-19 to CN, Male) was 0.758 and the “Ratio of serum levels” value ([1]; ADAS 20-39 to 5-19, Male) was 0.917. The “Ratio of serum levels” value ([1]; ADAS 20-39 to CN, Male) was 0.695, the “Ratio of serum levels” value ([1]; ADAS 40-70 to 5-19, Male) was 0.791 and the “Ratio of serum levels” value ([1]; ADAS 40-70 to 20-39, Male) was 0.863. The “Ratio of serum levels” value ([1]; ADAS 40-70 to CN, Male) was 0.600, the “Serum level, Mean” value ([1]; Cognitive Normal, Female) was 0.933 and the “Average serum level, Mean” value ([1]; Cognitive Normal, Male) was 1.040. The “Serum level, Mean” value ([1]; Post Mortem Ctl, Male) was 0.217, the “Serum level, Mean” value ([1]; Post Mortem SDAT Male) was 0.106 and the “Ratio of serum levels” value ([1]; Post mortem SDAT vs Control, Male) was 0.486. The “Serum level, Mean” value ([1]; SDAT, ADAS 5-19, Female) was 0.753, the “Average serum level, Mean” value ([1]; SDAT, ADAS 5-19, Male) was 0.789 and the “Serum level, Mean” value ([1]; SDAT, ADAS 20-39, Female) was 0.738. The “Average serum level, Mean” value ([1]; SDAT, ADAS 20-39, Male) was 0.723, the “Serum level, Mean” value ([1]; SDAT, ADAS 40-70, Female) was 0.620 and the “Average serum level, Mean” value ([1]; SDAT, ADAS 40-70, Male) was 0.624. The “Serum level, Mean” value ([1]; SDAT_all, Female) was 0.702, the “Average serum level, Mean” value ([1]; SDAT_all, Male) was 0.736 and the “Ratio, ADAS 5-19 to CN, Female” value ([1]; serum level ratio, females, ADAS 5-19 vs CN) was 0.807. For the same molecule, the “Ratio, ADAS 20-39 to 5-19, Female” value ([1]; serum level ratio, females, ADAS 20-39 vs ADAS 5-19) was 0.979, the “Ratio, ADAS 20-39 to CN, Female” value ([1]; serum level ratio, females, ADAS 20-39 vs CN) was 0.790 and the “Ratio, ADAS 40-70 to 5-19, Female” value ([1]; serum level ratio, females, ADAS 40-70 vs ADAS 5-19) was 0.824. For the same molecule, the “Ratio, ADAS 40-70 to 20-39, Female” value ([1]; serum level ratio, females, ADAS 40-70 vs ADAS 20-39) was 0.841, the “Ratio, ADAS 40-70 to CN, Female” value ([1]; serum level ratio, females, ADAS 40-70 vs CN) was 0.665 and the “Ratio, 50-59 vs. 40-49, Female” value ([1]; serum level ratio, females, age 50-59 vs 40-49) was 0.832. The “Ratio, 60-69 vs. 40-49, Female” value ([1]; serum level ratio, females, age 60-69 vs 40-49) was 0.741, the “Ratio, 70+ vs. 40-49, Female” value ([1]; serum level ratio, females, age 70+ vs 40-49) was 0.817 and the “Ratio, AD, All to CN, Female” value ([1]; serum level ratio, females, all AD vs cognitively normal) was 0.752. The “Ratio, Autopsy AD vs. Control, Female” value ([1]; serum level ratio, females, autopsy AD vs control) was 0.593, the “Ratio, 50-59 vs. 40-49, Male” value ([1]; serum level ratio, males, age 50-59 vs 40-49) was 1.179 and the “Ratio, 60-69 vs. 40-49, Male” value ([1]; serum level ratio, males, age 60-69 vs 40-49) was 1.183. The “Ratio, 70+ vs. 40-49, Male” value ([1]; serum level ratio, males, age 70+ vs 40-49) was 1.149, the “Mean serum level, Age Ctl, 30-39, Female” value ([1]; serum, females, age 30-39) was 0.938 and the “Mean serum level, Age Ctl, 40-49, Female” value ([1]; serum, females, age 40-49) was 1.025. The “Mean serum level, Age Ctl, 50-59, Female” value ([1]; serum, females, age 50-59) was 0.853, the “Mean serum level, Age Ctl, 60-69, Female” value ([1]; serum, females, age 60-69) was 0.759 and the “Mean serum level, Age Ctl, 70+, Female” value ([1]; serum, females, age 70+) was 0.837. The “Mean serum level, Post Mortem SDAT, Female” value [1, 3] was 0.168, the “Mean serum level, Post Mortem Ctl, Female” value [1, 4] was 0.283 and the “Mean serum level, Age Ctl, 30-39, Male” value ([1]; serum, males, age 30-39) was 1.054. For the same molecule, the “Mean serum level, Age Ctl, 40-49, Male” value ([1]; serum, males, age 40-49) was 0.788, the “Mean serum level, Age Ctl, 50-59, Male” value ([1]; serum, males, age 50-59) was 0.930 and the “Mean serum level, Age Ctl, 60-69, Male” value ([1]; serum, males, age 60-69) was 0.933. For the same molecule, the “Mean serum level, Age Ctl, 70+, Male” value ([1]; serum, males, age 70+) was 0.906, the “Ratio of ethanolamine phospholipid ratios to M01 between cohorts” value (“Ratio … to M01 between cohorts” for short) ([2]; AD, All to CN, Male) was 0.669 and the “Ratio … to M01 between cohorts” value ([2]; ADAS 5-19 to CN, Male) was 0.714. The “Ratio … to M01 between cohorts” value ([2]; ADAS 20-39 to CN, Male) was 0.661, the “Ratio … to M01 between cohorts” value ([2]; ADAS 40-70 to CN, Male) was 0.603 and the “Average serum ethanolamine phospholipid ratio to M01, Mean” value ([2]; Cognitive Normal, Male, serum) was 9.309. For the same molecule, the “Average serum ethanolamine phospholipid ratio to M01, Mean” value ([2]; SDAT, ADAS 5-19, Male, serum) was 6.651, the “Average serum ethanolamine phospholipid ratio to M01, Mean” value ([2]; SDAT, ADAS 20-39, Male, serum) was 6.157 and the “Average serum ethanolamine phospholipid ratio to M01, Mean” value ([2]; SDAT, ADAS 40-70, Male, serum) was 5.616. The “Average serum ethanolamine phospholipid ratio to M01, Mean” value ([2]; SDAT_all, Male, serum) was 6.230, the “Ethanolamine Phospholipid Ratio to M01, Mean, Age Ctl, 30-39, Female” value ([2]; human serum, females aged 30-39) was 8.971 and the “Ethanolamine Phospholipid Ratio to M01, Mean, Age Ctl, 40-49, Female” value ([2]; human serum, females aged 40-49) was 9.244. For the same molecule, the “Ethanolamine Phospholipid Ratio to M01, Mean, Age Ctl, 50-59, Female” value ([2]; human serum, females aged 50-59) was 8.625, the “Ratio of Ethanolamine Phospholipid Ratio to M01, 50-59 vs. 40-49, Female” value ([2]; human serum, females aged 50-59 vs. females aged 40-49) was 0.933 and the “Ethanolamine Phospholipid Ratio to M01, Mean, Age Ctl, 60-69, Female” value ([2]; human serum, females aged 60-69) was 6.263. The “Ratio of Ethanolamine Phospholipid Ratio to M01, 60-69 vs. 40-49, Female” value ([2]; human serum, females aged 60-69 vs. females aged 40-49) was 0.678, the “Ethanolamine Phospholipid Ratio to M01, Mean, Age Ctl, 70+_Female” value ([2]; human serum, females aged 70+) was 6.923 and the “Ratio of Ethanolamine Phospholipid Ratio to M01, 70+ vs. 40-49, Female” value ([2]; human serum, females aged 70+ vs. females aged 40-49) was 0.749. The “Ratio of Ethanolamine Phospholipid Ratio to M01, 50-59 vs. 40-49, Male” value ([2]; human serum, males aged 50-59 vs. males aged 40-49) was 1.162, the “Ratio of Ethanolamine Phospholipid Ratio to M01, 60-69 vs. 40-49, Male” value ([2]; human serum, males aged 60-69 vs. males aged 40-49) was 0.970 and the “Ratio of Ethanolamine Phospholipid Ratio to M01, 70+ vs. 40-49, Male” value ([2]; human serum, males aged 70+ vs. males aged 40-49) was 0.942. The “Ratio of ethanolamine phospholipid ratio to M01, ADAS 5-19 to CN, Female” value ([2]; serum, females, ADAS 5-19 vs cognitive normal) was 0.873, the “Ratio of ethanolamine phospholipid ratio to M01, ADAS 20-39 to 5-19, Female” value ([2]; serum, females, ADAS 20-39 vs ADAS 5-19) was 0.949 and the “Ratio of ethanolamine phospholipid ratio to M01, ADAS 20-39 to CN, Female” value ([2]; serum, females, ADAS 20-39 vs cognitive normal) was 0.828. For the same molecule, the “Ratio of ethanolamine phospholipid ratio to M01, ADAS 40-70 to 5-19, Female” value ([2]; serum, females, ADAS 40-70 vs ADAS 5-19) was 0.755, the “Ratio of ethanolamine phospholipid ratio to M01, ADAS 40-70 to 20-39, Female” value ([2]; serum, females, ADAS 40-70 vs ADAS 20-39) was 0.795 and the “Ratio of ethanolamine phospholipid ratio to M01, ADAS 40-70 to CN, Female” value ([2]; serum, females, ADAS 40-70 vs cognitive normal) was 0.659. For the same molecule, the “Ethanolamine phospholipid ratio to M01, Mean, SDAT, ADAS 5-19, Female” value ([2]; serum, females, SDAT ADAS 5-19) was 7.041, the “Ethanolamine phospholipid ratio to M01, Mean, SDAT, ADAS 20-39, Female” value ([2]; serum, females, SDAT ADAS 20-39) was 6.681 and the “Ethanolamine phospholipid ratio to M01, Mean, SDAT, ADAS 40-70, Female” value ([2]; serum, females, SDAT ADAS 40-70) was 5.313. For the same molecule, the “Ratio of ethanolamine phospholipid ratio to M01, AD, All to CN, Female” value ([2]; serum, females, all AD vs cognitive normal) was 0.782, the “Ethanolamine phospholipid ratio to M01, Mean, SDAT_all Female” value ([2]; serum, females, all SDAT) was 6.310 and the “Ratio of ethanolamine phospholipid ratio to M01, Autopsy AD vs. Control, Female” value ([2]; serum, females, autopsy AD vs post mortem control) was 0.831. For the same molecule, the “Ethanolamine phospholipid ratio to M01, Mean, Cognitive Normal, Female” value ([2]; serum, females, cognitive normal) was 8.068, the “Ethanolamine phospholipid ratio to M01, Mean, Post Mortem SDAT Female” value [2, 3] was 1.480 and the “Ethanolamine phospholipid ratio to M01, Mean, Post Mortem Ctl, Female” value [2, 4] was 1.782. For the same molecule, the “Ratio of ethanolamine phospholipid ratio to M01, ADAS 20-39 to 5-19, Male” value ([2]; serum, males, SDAT ADAS 20-39 vs ADAS 5-19) was 0.926, the “Ratio of ethanolamine phospholipid ratio to M01, ADAS 40-70 to 5-19, Male” value ([2]; serum, males, SDAT ADAS 40-70 vs ADAS 5-19) was 0.844 and the “Ratio of ethanolamine phospholipid ratio to M01, ADAS 40-70 to 20-39, Male” value ([2]; serum, males, SDAT ADAS 40-70 vs ADAS 20-39) was 0.912. For the same molecule, the “Ethanolamine phospholipid ratio to M01, Mean, Age Ctl, 30-39, Male” value ([2]; serum, males, age control 30-39) was 8.811, the “Ethanolamine phospholipid ratio to M01, Mean, Age Ctl, 40-49, Male” value ([2]; serum, males, age control 40-49) was 7.346 and the “Ethanolamine phospholipid ratio to M01, Mean, Age Ctl, 50-59, Male” value ([2]; serum, males, age control 50-59) was 8.537. For the same molecule, the “Ethanolamine phospholipid ratio to M01, Mean, Age Ctl, 60-69, Male” value ([2]; serum, males, age control 60-69) was 7.124, the “Ethanolamine phospholipid ratio to M01, Mean, Age Ctl, 70+_Male” value ([2]; serum, males, age control 70+) was 6.920 and the “Ethanolamine phospholipid ratio to M01, Mean, Post Mortem SDAT Male” value ([2]; serum, males, post mortem SDAT) was 1.199. The “Ratio of ethanolamine phospholipid ratio to M01, SDAT vs Control (post mortem, males)” value ([2]; serum, males, post mortem SDAT vs post mortem control) was 0.634 and the “Ethanolamine phospholipid ratio to M01, Mean, Post Mortem Ctl, Male” value ([2]; serum, males, post mortem control) was 1.890.
